# Data: PubChem BioAssay AID540276 (National Center for Advancing Translational Sciences (NCATS), 2011)
# About 5,400 (1.8%) of roughly 300,000 compounds were called active. The inconclusive results got no clear call from the source; some entries with a clear call stand among them for comparison. Calls come from the whole dose curve; tested in HEK293 cells. Potencies beside an inconclusive call are fits to weak or partial responses and may not hold up.
# Test: qHTS for inhibitors of binding or entry into cells for Marburg Virus
# Details: Marburg virus pseudotyped entry inhibition, cell reporter; activity change, negative = inhibition: at 37.8 µM (top of the series) unless noted
# % is set by controls: 0 for no effect and ±100 for the full control effect; potency is the fitted concentration of half-maximal effect.
Compound,Potency,"activity change, negative = inhibition"
C#CCCCON=C1C[C@@H](O)[C@H](O)[C@H]2[C@@H]3C(=O)N(Cc4ccc5c(c4)OCO5)C(=O)[C@@H]3CC[C@H]12,"inconclusive: 2.99 µM [inhibitor, single point]",
CN1CCN(C(=O)/C=C/c2ccc([N+](=O)[O-])cc2)CC1,"inconclusive: 0.355 µM [inhibitor, partial curve, poor fit]",
COC(=O)c1ccccc1NC(=O)Cn1c(CCC(=O)O)ccc1-c1cccs1,,inactive: -5.56%
CC(=O)Nc1ccc(N2C(=O)c3ccc(S(=O)(=O)c4ccc(C(=O)O)cc4)cc3C2=O)cc1,,inactive: 25.6%
Cc1ccc2c(c1)c1c3n2CCN(C(=O)Cn2c(-c4ccccc4)noc2=O)C3CCC1 (configuration not stated),"inconclusive: 20.6 µM [inhibitor, single point]",
CCCCSc1nc(-c2ccc(OC)cc2)ccc1C#N,"inconclusive: 5.62 µM [inhibitor, single point]",
COc1ccc(NC(=S)N2CCN(C/C=C/c3ccccc3)CC2)cc1,"inconclusive: 20 µM [inhibitor, single point]",
Cc1ccc(-c2nc(-c3cc4c([nH]c3=O)CC(C)(C)CC4=O)sc2C)cc1,"inconclusive: 35.5 µM [activator, single point]",
Cc1ccc(C2=NNC(=Nc3ccc(F)cc3)SC2)cc1,"inconclusive: 5.01 µM [inhibitor, full curve, poor fit]",
Brc1ccc(COc2ncnc3ccccc23)cc1,"inconclusive: 35.5 µM [inhibitor, single point]",
O=C(CN(C(=O)CNC(=O)c1ccco1)c1cccc(F)c1)NC1CCCCC1,"inconclusive: 3.16 µM [inhibitor, single point]",
CN(C)CC#CCC(O)(c1ccccc1)c1ccccc1,"inconclusive: 10 µM [inhibitor, single point]",
CCCCNC(=S)NNC(=O)c1csc(CC)c1,,inactive: -2.61%
COc1ccccc1CNS(=O)(=O)c1ccc2c(c1)NC(=O)C(C)C(=O)N2 (configuration not stated),"inconclusive: 22.4 µM [inhibitor, single point]",
Cc1cccc2sc(NC(=O)[C@@H]3CCCN3C(=O)c3cccs3)nc12,"inconclusive: 0.178 µM [inhibitor, full curve, poor fit]",
CCC(CC)NCc1c[nH]c2ccccc12,"inconclusive: 32.6 µM [inhibitor, single point]",
Cn1c(=O)oc2cc(S(=O)(=O)N3CCCC(C(=O)NCCc4ccc(Cl)cc4)C3)ccc21 (configuration not stated),,inactive: 0.429% [at 46.1 µM]
CCOC(=O)c1ccc(-n2cc(C(=O)c3cccnc3)nn2)cc1,"inconclusive: 31.6 µM [activator, single point]",
CCOC(=O)c1cc(-c2nnc(-c3ccc(Cl)cc3)o2)c(C)nc1C,,inactive: 0.93%
COc1ccc2nc(N3CCN(C(=O)C4COc5ccccc5O4)CC3)sc2c1 (configuration not stated),"inconclusive: 3.98 µM [activator, single point]",
COC(=O)C1CN(C(=O)C(C)Oc2ccccc2Cl)c2ccccc2O1 (configuration not stated),"inconclusive: 1.58 µM [inhibitor, partial curve, poor fit]",

Compound,Potency,"activity change, negative = inhibition"
CN1C(=O)c2ccc(C(=O)NCc3ccc4c(c3)OCO4)cc2C1=O,"inconclusive: 0.224 µM [inhibitor, full curve, poor fit]",
O=C(COC(=O)C1CCN(S(=O)(=O)c2cccc3cccnc23)CC1)c1ccccc1,"inconclusive: 7.94 µM [inhibitor, partial curve, poor fit]",
CC1CCCCN1CC(=O)Nc1ccc(Oc2ccccc2)cc1 (configuration not stated),"inconclusive: 31.6 µM [inhibitor, single point]",
CCCn1c(SCC(=O)O)nc2ccccc21,,inactive: 2.47%
CC(=O)Nc1ccc(S(=O)(=O)N(C)CC(=O)Nc2ccccc2N2CCCC2)cc1,"inconclusive: 2.82 µM [activator, single point]",
O=C(Nc1nnc(-c2ccccc2)o1)c1cccc(S(=O)(=O)N2CCOCC2)c1,active: 12.6 µM,
O=C1CCCC2=C1C(c1ccc(O)c(O)c1)Nc1ccc3ncccc3c12 (configuration not stated),,inactive: -11.2% [at 46.1 µM]
O=C(CN1CCOCC1)NCC12CC3CC(CC(C3)C1)C2,"inconclusive: 1.26 µM [activator, single point]",
O=C1C=C(N2CCCCCC2)C(=O)N1c1ccc(Cl)cc1,"inconclusive: 6.31 µM [activator, partial curve, poor fit]",
CCOc1ccc(C(=O)CCC(=O)Nc2cc(C)ccn2)cc1,"inconclusive: 10 µM [activator, partial curve, poor fit]",
C=CC(=O)N1C/C(=C/c2ccc(F)cc2)C(=O)/C(=C\c2ccc(F)cc2)C1,"inconclusive: 0.708 µM [inhibitor, full curve, poor fit]",
C=CCNC(=O)c1cc2c(=O)c3ccccc3oc2nc1C,,inactive: 16.1% [at 46.1 µM]
O=C(Cc1ccc([N+](=O)[O-])cc1)NCc1cccnc1,,inactive: -4.33%
CC(C)(C)c1nnc(N/N=C/c2cc(Br)ccc2O)n(N)c1=O,"inconclusive: 2.51 µM [inhibitor, full curve, poor fit]",
CC1COc2ccccc2N1S(=O)(=O)c1ccc(Cl)cc1 (configuration not stated),"inconclusive: 0.631 µM [inhibitor, full curve, poor fit]",
COc1ccc(C2Nc3ccccc3C(=O)N2Cc2ccccc2)cc1Cn1nnc2ccccc21 (configuration not stated),"inconclusive: 1.83 µM [inhibitor, partial curve, poor fit]",
CC(C)(CNC(=O)c1ccc([N+](=O)[O-])c(Cl)c1)CNC(=O)c1ccc([N+](=O)[O-])c(Cl)c1,"inconclusive: 17.8 µM [inhibitor, partial curve, poor fit]",
O=c1[nH]c2ccccc2c(=O)n1CCCO,"inconclusive: 11.6 µM [activator, single point]",
Cc1cc(Cl)ccc1OCC(=O)Nc1c(Cl)ccc2nsnc12,,inactive: 15% [at 46.1 µM]
CC(C)[C@H](NC(=O)N1CCn2c1nc1ccccc12)C(=O)NCc1ccc(F)cc1,"inconclusive: 22.4 µM [inhibitor, single point]",
CCOC(=O)c1c(-c2cccc([N+](=O)[O-])c2)csc1NC(=O)C1CC1,"inconclusive: 8.2 µM [inhibitor, partial curve, poor fit]",

# Grouped by structure, the compounds so far containing a Cl atom (seven)
Compound,Potency,"activity change, negative = inhibition"
Cn1c(=O)oc2cc(S(=O)(=O)N3CCCC(C(=O)NCCc4ccc(Cl)cc4)C3)ccc21 (configuration not stated),,inactive: 0.429% [at 46.1 µM]
CCOC(=O)c1cc(-c2nnc(-c3ccc(Cl)cc3)o2)c(C)nc1C,,inactive: 0.93%
COC(=O)C1CN(C(=O)C(C)Oc2ccccc2Cl)c2ccccc2O1 (configuration not stated),"inconclusive: 1.58 µM [inhibitor, partial curve, poor fit]",
O=C1C=C(N2CCCCCC2)C(=O)N1c1ccc(Cl)cc1,"inconclusive: 6.31 µM [activator, partial curve, poor fit]",
CC1COc2ccccc2N1S(=O)(=O)c1ccc(Cl)cc1 (configuration not stated),"inconclusive: 0.631 µM [inhibitor, full curve, poor fit]",
CC(C)(CNC(=O)c1ccc([N+](=O)[O-])c(Cl)c1)CNC(=O)c1ccc([N+](=O)[O-])c(Cl)c1,"inconclusive: 17.8 µM [inhibitor, partial curve, poor fit]",
Cc1cc(Cl)ccc1OCC(=O)Nc1c(Cl)ccc2nsnc12,,inactive: 15% [at 46.1 µM]
